# This is one part of the list.
# Amino acid sequences for entries named in this document (tags omitted). A change or cut given only in a name is not applied to a line headed by its entry.
# UniProt Q9UN36: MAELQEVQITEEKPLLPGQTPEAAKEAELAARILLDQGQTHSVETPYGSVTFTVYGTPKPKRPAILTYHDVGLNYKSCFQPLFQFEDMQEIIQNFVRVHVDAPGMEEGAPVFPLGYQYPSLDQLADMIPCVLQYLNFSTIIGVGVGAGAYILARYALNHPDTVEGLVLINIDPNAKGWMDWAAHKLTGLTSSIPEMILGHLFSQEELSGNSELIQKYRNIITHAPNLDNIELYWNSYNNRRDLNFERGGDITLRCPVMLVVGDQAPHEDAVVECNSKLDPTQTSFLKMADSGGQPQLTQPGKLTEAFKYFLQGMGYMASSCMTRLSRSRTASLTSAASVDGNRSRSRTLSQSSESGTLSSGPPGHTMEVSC
# UniProt Q9NXR1: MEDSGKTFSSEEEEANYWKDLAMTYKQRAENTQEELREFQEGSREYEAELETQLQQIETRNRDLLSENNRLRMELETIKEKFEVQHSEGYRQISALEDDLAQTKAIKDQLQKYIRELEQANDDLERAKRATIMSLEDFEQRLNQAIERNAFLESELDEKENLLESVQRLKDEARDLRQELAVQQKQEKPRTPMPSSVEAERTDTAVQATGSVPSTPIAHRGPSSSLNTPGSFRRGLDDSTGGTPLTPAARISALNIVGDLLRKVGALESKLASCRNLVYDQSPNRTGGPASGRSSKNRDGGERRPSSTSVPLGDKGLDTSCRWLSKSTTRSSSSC
# UniProt Q96PU5: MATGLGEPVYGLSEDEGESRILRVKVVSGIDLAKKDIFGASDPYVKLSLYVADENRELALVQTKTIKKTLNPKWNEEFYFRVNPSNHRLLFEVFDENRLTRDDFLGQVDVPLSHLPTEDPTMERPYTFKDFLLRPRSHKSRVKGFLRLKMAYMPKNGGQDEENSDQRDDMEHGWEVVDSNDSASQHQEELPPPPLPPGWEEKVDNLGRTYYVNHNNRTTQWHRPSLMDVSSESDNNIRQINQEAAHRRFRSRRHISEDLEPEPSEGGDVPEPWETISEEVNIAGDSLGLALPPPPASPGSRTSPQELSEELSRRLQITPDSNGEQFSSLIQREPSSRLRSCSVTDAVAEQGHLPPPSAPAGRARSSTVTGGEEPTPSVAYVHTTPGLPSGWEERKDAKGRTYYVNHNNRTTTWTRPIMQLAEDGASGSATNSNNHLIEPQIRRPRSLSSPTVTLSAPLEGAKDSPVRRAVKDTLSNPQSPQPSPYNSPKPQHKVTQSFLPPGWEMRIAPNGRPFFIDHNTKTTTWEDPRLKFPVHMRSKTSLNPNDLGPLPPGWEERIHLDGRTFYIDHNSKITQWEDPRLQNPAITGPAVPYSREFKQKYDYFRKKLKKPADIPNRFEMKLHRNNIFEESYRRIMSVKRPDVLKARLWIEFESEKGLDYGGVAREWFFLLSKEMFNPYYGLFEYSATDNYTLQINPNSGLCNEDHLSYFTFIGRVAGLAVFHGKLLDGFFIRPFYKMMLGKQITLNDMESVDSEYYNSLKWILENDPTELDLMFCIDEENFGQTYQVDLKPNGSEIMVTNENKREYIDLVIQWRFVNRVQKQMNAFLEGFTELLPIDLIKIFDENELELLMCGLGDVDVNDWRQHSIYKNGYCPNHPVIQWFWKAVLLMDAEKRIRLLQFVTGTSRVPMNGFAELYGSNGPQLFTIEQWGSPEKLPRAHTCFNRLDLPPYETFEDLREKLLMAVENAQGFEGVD
# UniProt P56181: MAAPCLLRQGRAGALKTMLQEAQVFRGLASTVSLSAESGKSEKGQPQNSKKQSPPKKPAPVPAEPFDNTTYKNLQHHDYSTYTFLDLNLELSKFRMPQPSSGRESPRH
# UniProt Q86SG6: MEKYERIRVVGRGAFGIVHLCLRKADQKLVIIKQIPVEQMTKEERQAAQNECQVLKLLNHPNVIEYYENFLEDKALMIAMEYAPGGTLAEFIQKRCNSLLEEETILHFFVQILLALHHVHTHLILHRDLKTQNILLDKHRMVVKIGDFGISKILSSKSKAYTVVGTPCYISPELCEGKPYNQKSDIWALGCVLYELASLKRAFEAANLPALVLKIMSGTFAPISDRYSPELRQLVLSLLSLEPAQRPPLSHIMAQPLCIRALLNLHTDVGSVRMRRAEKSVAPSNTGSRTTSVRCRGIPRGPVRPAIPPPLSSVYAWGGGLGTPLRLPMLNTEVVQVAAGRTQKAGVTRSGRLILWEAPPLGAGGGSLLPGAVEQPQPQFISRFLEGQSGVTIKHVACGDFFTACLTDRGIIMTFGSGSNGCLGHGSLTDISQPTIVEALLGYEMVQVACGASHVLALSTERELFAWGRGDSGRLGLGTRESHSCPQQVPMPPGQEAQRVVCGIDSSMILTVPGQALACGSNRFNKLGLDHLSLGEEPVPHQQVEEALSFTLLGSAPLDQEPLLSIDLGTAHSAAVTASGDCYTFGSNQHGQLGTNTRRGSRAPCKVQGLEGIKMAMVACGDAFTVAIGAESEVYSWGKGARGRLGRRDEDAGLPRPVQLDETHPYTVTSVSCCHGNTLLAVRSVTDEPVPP
# UniProt Q9GZT8: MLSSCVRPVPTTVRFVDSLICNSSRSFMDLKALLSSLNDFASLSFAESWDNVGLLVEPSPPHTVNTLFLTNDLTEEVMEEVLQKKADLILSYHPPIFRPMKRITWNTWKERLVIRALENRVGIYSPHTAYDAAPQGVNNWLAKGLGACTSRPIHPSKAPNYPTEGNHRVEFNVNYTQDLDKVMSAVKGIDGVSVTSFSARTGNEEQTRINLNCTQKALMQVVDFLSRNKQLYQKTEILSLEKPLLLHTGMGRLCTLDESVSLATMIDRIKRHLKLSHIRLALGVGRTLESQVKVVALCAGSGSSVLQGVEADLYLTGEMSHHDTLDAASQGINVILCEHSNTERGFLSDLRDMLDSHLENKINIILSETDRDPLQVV
# UniProt Q9UMX5: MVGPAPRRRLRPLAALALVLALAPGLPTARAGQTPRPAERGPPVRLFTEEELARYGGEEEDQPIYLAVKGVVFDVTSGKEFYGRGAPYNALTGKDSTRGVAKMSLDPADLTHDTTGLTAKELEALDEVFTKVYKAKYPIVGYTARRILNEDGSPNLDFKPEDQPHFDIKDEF
# UniProt P28331, whole entry, looked up: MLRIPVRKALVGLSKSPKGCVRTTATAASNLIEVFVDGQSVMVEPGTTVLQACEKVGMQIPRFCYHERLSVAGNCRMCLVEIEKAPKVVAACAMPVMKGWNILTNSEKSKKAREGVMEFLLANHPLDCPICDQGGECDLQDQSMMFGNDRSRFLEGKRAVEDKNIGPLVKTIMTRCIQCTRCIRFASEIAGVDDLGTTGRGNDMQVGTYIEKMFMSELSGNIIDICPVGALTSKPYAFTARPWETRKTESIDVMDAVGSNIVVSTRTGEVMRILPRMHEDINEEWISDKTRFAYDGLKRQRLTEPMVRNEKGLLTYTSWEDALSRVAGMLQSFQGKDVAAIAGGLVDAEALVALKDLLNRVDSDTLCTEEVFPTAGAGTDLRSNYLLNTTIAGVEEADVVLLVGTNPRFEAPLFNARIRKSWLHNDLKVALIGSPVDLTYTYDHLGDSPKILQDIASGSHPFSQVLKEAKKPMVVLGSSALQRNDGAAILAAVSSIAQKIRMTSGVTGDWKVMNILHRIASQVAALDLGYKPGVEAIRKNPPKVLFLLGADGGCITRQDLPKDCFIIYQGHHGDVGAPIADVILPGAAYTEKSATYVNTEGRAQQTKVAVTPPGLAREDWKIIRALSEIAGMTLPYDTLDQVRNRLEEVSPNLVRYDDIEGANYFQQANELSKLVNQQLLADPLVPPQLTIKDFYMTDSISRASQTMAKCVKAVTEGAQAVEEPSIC
# UniProt Q5JS37: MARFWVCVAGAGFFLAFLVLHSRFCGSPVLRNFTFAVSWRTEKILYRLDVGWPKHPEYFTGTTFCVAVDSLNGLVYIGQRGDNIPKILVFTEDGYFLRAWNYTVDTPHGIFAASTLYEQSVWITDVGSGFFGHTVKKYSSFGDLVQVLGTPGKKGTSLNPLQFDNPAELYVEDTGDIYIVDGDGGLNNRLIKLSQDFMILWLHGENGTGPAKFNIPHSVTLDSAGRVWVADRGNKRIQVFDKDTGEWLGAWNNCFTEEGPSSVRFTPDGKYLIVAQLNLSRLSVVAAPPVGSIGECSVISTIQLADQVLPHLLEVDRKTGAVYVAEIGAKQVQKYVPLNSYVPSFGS
# UniProt O75323: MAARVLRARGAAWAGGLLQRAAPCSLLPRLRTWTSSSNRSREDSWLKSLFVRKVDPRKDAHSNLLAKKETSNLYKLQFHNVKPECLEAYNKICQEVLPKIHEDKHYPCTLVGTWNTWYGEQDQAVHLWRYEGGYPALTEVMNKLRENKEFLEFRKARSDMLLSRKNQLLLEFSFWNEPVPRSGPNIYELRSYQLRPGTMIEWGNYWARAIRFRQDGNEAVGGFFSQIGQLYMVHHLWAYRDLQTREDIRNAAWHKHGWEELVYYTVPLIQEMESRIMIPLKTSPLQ
# UniProt Q6P3R8: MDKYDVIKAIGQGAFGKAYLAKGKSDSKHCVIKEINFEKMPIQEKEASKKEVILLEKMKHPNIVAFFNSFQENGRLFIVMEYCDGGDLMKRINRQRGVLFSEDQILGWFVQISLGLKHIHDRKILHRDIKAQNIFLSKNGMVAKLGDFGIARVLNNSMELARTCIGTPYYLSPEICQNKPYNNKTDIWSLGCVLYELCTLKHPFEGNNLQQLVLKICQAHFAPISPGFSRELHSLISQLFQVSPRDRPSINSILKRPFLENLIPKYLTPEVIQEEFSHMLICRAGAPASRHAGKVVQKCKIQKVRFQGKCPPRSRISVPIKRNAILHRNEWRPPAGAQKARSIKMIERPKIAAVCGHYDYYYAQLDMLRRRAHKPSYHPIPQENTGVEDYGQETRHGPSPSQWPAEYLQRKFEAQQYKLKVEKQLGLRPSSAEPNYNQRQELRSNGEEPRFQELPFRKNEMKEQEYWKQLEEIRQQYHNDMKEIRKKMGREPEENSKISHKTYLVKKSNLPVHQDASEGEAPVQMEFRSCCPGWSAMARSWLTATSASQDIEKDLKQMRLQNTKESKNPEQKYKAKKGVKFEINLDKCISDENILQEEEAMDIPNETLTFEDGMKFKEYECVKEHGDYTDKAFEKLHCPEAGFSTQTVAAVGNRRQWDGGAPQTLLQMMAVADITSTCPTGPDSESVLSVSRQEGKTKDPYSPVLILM
# UniProt O15226: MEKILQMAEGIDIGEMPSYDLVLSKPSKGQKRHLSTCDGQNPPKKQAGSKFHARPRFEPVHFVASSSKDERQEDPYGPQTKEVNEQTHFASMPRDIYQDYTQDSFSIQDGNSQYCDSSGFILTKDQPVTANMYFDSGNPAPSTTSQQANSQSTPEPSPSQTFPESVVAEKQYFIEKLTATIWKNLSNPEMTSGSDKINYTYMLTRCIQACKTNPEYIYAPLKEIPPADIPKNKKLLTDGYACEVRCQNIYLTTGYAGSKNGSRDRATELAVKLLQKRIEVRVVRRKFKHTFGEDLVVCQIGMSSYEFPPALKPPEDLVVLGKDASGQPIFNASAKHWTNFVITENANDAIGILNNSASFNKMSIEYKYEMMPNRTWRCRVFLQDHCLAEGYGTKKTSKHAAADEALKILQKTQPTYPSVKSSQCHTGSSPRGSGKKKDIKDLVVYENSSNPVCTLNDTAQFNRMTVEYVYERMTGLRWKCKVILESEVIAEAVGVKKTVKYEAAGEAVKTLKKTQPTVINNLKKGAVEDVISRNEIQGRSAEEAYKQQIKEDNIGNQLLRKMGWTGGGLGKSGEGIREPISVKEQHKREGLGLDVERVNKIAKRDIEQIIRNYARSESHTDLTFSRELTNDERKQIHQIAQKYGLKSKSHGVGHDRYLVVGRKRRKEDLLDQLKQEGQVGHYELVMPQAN
# UniProt O43677, whole entry, looked up: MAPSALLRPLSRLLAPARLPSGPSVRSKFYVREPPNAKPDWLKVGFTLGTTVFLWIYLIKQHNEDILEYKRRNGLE
# UniProt Q92692, whole entry, looked up: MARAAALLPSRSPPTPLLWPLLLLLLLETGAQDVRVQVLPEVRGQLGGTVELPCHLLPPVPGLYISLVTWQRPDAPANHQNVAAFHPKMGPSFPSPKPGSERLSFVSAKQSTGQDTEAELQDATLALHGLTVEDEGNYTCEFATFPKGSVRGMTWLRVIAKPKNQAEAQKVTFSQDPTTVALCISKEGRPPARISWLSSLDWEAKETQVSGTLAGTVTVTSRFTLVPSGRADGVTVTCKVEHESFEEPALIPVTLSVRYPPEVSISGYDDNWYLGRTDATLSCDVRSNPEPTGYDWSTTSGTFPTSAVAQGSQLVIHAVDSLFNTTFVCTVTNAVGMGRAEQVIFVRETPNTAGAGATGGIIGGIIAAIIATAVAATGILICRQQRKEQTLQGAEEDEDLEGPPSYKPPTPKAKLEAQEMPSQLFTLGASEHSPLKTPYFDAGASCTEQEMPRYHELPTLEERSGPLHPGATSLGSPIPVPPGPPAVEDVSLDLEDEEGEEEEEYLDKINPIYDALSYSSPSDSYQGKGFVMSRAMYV
# UniProt O95167, whole entry, looked up: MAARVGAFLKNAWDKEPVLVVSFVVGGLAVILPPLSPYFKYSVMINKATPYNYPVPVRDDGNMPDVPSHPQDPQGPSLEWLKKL
# UniProt O00483, whole entry, looked up: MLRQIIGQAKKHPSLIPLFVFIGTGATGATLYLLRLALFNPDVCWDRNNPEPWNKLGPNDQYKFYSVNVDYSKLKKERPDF
# Compound: CC1=C2C(=CC=C1)N=C(N(C2=O)C3=CC=CC=C3C)CN4C=NC5=C(N=CN=C54)N
# Assay: log2 fold change, soluble protein after heating vs DMSO (PISA); higher = thermal stabilisation; K562 lysate, 10 uM; active = over 0.2 and 3.5 SD of the protein, either way, in both replicates (recomputed)
# Outline: (§1)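 The values are log-two fold changes in thermal stability compared with solvent controls and come from duplicates. They were obtained by TMTpro 16plex LC-MS/MS, with channel sums equalised, on the supernatant after 21,000xg for 90 min. That supernatant came from crude K562 extract at 1 mg/mL protein treated with 10 μM compound for 30 min, heated for 3 min across 48°C-58°C, pooled and brought to 0.5% NP-40 at 4°C.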
row,Target,log2 fold change
1,NDRG2 isoform 6 (UniProt Q9UN36),inactive: 0.007
2,NDE1 isoform 1 (UniProt Q9NXR1),inactive: 0.035
3,NEU4 (UniProt C9JEA3),inactive: 0.024
4,NEDD4L (UniProt Q96PU5),inactive: -0.008
5,NDUFV3 isoform 2 (UniProt P56181),inactive: 0.026
6,NEK8 (UniProt Q86SG6),inactive: -0.017

# Compound: Cc1sc2c(c1C)C(c1ccc(Cl)cc1)=N[C@@H](CC(=O)OC(C)(C)C)c1nnc(C)n1-2
# Assay: as above
# Outline: as §1
row,Target,log2 fold change
1,NKIRAS1 (UniProt Q9NYS0),inactive: -0.057
2,NIF3L1 (UniProt Q9GZT8),inactive: 0.002
3,NENF (UniProt Q9UMX5),inactive: -0.033
4,NDUFS1 isoform 2 (UniProt P28331),inactive: 0.013
5,NDUFAB1 (UniProt O14561),inactive: 0.007
6,NLRP1 (UniProt Q9C000),inactive: 0.135
7,NHLRC3 (UniProt Q5JS37),inactive: -0.069
8,NIPSNAP2 (UniProt O75323),inactive: -0.034
9,NEK5 (UniProt Q6P3R8),inactive: -0.293
10,NKRF isoform 2 (UniProt O15226),inactive: -0.004
11,NDUFC1 (UniProt O43677),inactive: -0.042
12,NECTIN2 isoform 2 (UniProt Q92692),inactive: -0.117
13,NEURL4 (UniProt Q96JN8),inactive: 0.072
14,NDUFB10 (UniProt O96000),inactive: 0.007
15,NDUFA3 (UniProt O95167),inactive: 0.007
16,NDUFA4 (UniProt O00483),inactive: 0.035

# A second format for part of the listing above:
row	Target	log2 fold change
6	NLRP1 (UniProt Q9C000)	inactive: 0.135
7	NHLRC3 (UniProt Q5JS37)	inactive: -0.069
8	NIPSNAP2 (UniProt O75323)	inactive: -0.034
9	NEK5 (UniProt Q6P3R8)	inactive: -0.293
10	NKRF isoform 2 (UniProt O15226)	inactive: -0.004
11	NDUFC1 (UniProt O43677)	inactive: -0.042

# Reference: the supplement of paper PMC10849652
